Measured values reported in US12673972B2, “Lung-specific targeting-peptide (LTP), compositions, and uses thereof” (University of Pittsburgh—Of the Commonwealth System of …, priority 2019, dated 2026).
Some results were stated once for a whole list of compounds, not compound by compound.

System: H9C2 cells
Experiment: FACS uptake of Cy5.5-labeled alanine-scan peptides in H9C2 cells
Assay type: cell-based, rat
Conditions: 10 μM peptide, 30 minutes at 37° C., FIG. 1
Description: An alanine scan of the cardiac targeting peptide (CTP, APWHLSSQYSRT, SEQ ID NO: 3) was performed, in which each amino acid was replaced sequentially with alanine, resulting in 11 different “alanine mutant” versions of CTP. Solid phase peptide synthesis of the alanine mutants of CTP fluorescently labeled with Cyanine 5.5 (Cy5.5) was conducted using standard fluorenylmethoxycarbonyl protecting group organic synthesis (FMOC) conditions on a Liberty CEM Microwave Peptide Synthesizer. Cleavage of the fully-protected CTP peptide fragment from the 2-chlorotrityl solid support was accomplished using 1% Trifluoroacetic acid (TFA)/methylene chloride (DCM), followed by elution of the peptide using TFA+scavengers, followed by isolation of the crude product by precipitation in Diethyl Ether (EtO2). […]
For in vitro testing, a rat cardiomyoblast cell line, H9C2 was incubated with each of the alanine-scan peptides, including parental peptide CTP and variants CTP-A and CTP-B; each condition was run in triplicate. […] Following the incubation period, cells were washed extensively with PBS, trypsinized and fluorescence activated cell sorting (FACS) was performed in biological triplicates. […] There was almost a 3-4 fold increase in median fluorescence intensities compared with CTP for S7A peptide and R11A peptide (FIG. 1).

Sequence | increase in median fluorescence intensities compared with CTP
APWHLSAQYSRT (Cy5.5 label) [S7A, Lung-specific targeting peptide, alanine mutant of CTP; tested Cy5.5-labeled] | 3-4 fold
APWHLSSQYSAT (Cy5.5 label) [R11A, Lung-specific targeting peptide, alanine mutant of CTP; tested Cy5.5-labeled] | 3-4 fold
